Earlier results, collected in patent US20220387392A1, “METHODS AND COMPOSITIONS RELATED TO THE USE OF ERGOTHIONEINE” (priority 2020, published 2022).
At least one compound was matched to its structure with a doubt left.

Conditions: erythrocytes, bone marrow, liver, kidney, seminal fluid, lens and cornea of the eye; cited from earlier work

In the case of `C[N+](C)(C)[C@@H](Cc1c[nH]c(=S)[nH]1)C(=O)[O-]` [ergothioneine], the “ergothioneine concentrations in tissues” value is listed as 100 to 2000 µM.
